# Experimental data reported in ChEMBL document CHEMBL1154345, “Discovery of tricyclic 5,6-dihydro-1H-pyridin-2-ones as novel, potent, and orally bioavailable inhibitors of HCV NS5B polymerase” (Bioorg Med Chem Lett, 2009).
# Tested on: Liver microsomes
# Test: not given
# Settings: human, 1 µM
row,Compound,t1/2 [h]
1,CS(=O)(=O)Nc1ccc2c(c1)S(=O)(=O)N=C(C1=C(O)C3C4CCC(C4)C3N(Cc3ccc(F)cc3)C1=O)N2 (racemic; 2b),> 1

# Tested on: not listed separately
# Test: physchem
# Settings: buffer, pH 7.5
row,Compound,solubility [µM]
1,Cc1cc(CN2C(=O)C(C3=NS(=O)(=O)c4cc(NS(C)(=O)=O)ccc4N3)=C(O)[C@@H]3[C@H]4CC[C@H](C4)[C@@H]32)ccc1F,> 100
2,CS(=O)(=O)Nc1ccc2c(c1)S(=O)(=O)N=C(C1=C(O)[C@H]3[C@@H]4CC[C@@H](C4)[C@H]3N(Cc3ccc(F)cc3)C1=O)N2,> 100
3,CS(=O)(=O)Nc1ccc2c(c1)S(=O)(=O)N=C(C1=C(O)[C@@H]3[C@H]4CC[C@H](C4)[C@@H]3N(Cc3ccc(F)cc3)C1=O)N2 [SETROBUVIR],> 100
4,CS(=O)(=O)Nc1ccc2c(c1)S(=O)(=O)N=C(C1=C(O)C3C4CCC(C4)C3N(Cc3ccc(F)cc3)C1=O)N2 (racemic; 2a),> 100
5,CS(=O)(=O)Nc1ccc2c(c1)S(=O)(=O)N=C(C1=C(O)[C@H]3[C@H]4CC[C@H](C4)[C@H]3N(Cc3ccc(F)cc3)C1=O)N2,> 100
